# Results: the supplement of paper PMC8728848
# The other results are listed elsewhere or left out.
# Assays:
# Assay in all cases: glycan array binding signal (z-score within array); higher = stronger binding
# Conditions in all cases: glycan notation: IUPAC condensed, linker removed
# [1] = target: Neu5Ac(a2-3)Gal(b1-4)GlcNAc(b1-6)GalNAc
# How it was run: (§1)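 Glycan array data came from 3228 arrays in the Consortium for Functional Glycomics database, and only arrays with an available protein sequence were kept. Glycan names were put into IUPAC-condensed notation, and columns mapping to the same glycan were averaged. The binding signal is a within-array Z-score, averaged across arrays of one protein sequence run at different concentrations or buffers and across linkers. A negative Z-score can be read as non-binding.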
# [2] = target: Neu5Ac(a2-3)Gal(b1-4)GlcNAc(b1-6)[Gal(b1-3)]GalNAc
# How it was run: as §1
# [3] = target: Neu5Ac(a2-3)Gal(b1-4)GlcNAc(b1-6)[Neu5Ac(a2-3)Gal(b1-3)]GalNAc
# How it was run: as §1
# [4] = target: Neu5Ac(a2-3)Gal(b1-4)GlcNAc6S
# How it was run: as §1
# [5] = target: Neu5Ac(a2-3)Gal(b1-4)[Fuc(a1-3)]GlcNAc
# How it was run: as §1
# [6] = target: Neu5Ac(a2-3)Gal(b1-4)[Fuc(a1-3)]GlcNAc(b1-2)Man
# How it was run: as §1
# [7] = target: Neu5Ac(a2-3)Gal(b1-4)[Fuc(a1-3)]GlcNAc(b1-3)Gal
# How it was run: as §1
# [8] = target: Neu5Ac(a2-3)Gal(b1-4)[Fuc(a1-3)]GlcNAc(b1-3)Gal(b1-4)GlcNAc
# How it was run: as §1
# [9] = target: Neu5Ac(a2-3)Gal(b1-4)[Fuc(a1-3)]GlcNAc(b1-3)Gal(b1-4)[Fuc(a1-3)]GlcNAc(b1-3)Gal(b1-4)[Fuc(a1-3)]GlcNAc
# How it was run: as §1
# [10] = target: Neu5Ac(a2-3)Gal(b1-4)[Fuc(a1-3)]GlcNAc(b1-3)GalNAc
# How it was run: as §1
# [11] = target: Neu5Ac(a2-3)Gal(b1-4)[Fuc(a1-3)]GlcNAc(b1-6)[Gal(b1-3)]GalNAc
# How it was run: as §1
# [12] = target: Neu5Ac(a2-3)Gal(b1-4)[Fuc(a1-3)]GlcNAc(b1-6)[Neu5Ac(a2-3)Gal(b1-3)]GalNAc
# How it was run: as §1
# [13] = target: Neu5Ac(a2-3)Gal(b1-4)[Fuc(a1-3)]GlcNAc6S
# How it was run: as §1
# [14] = target: Neu5Ac(a2-3)Gal6S(b1-4)GlcNAc
# How it was run: as §1
# [15] = target: Neu5Ac(a2-3)Gal6S(b1-4)[Fuc(a1-3)]GlcNAc
# How it was run: as §1
# Neu5Ac(a2-3)GalNAc = target: Neu5Ac(a2-3)GalNAc
# How it was run: as §1
# [16] = target: Neu5Ac(a2-3)GalNAc(b1-4)GlcNAc
# How it was run: as §1
# [17] = target: Neu5Ac(a2-3)[GalNAc(b1-4)]Gal(b1-4)Glc
# How it was run: as §1
# [18] = target: Neu5Ac(a2-3)[GalNAc(b1-4)]Gal(b1-4)GlcNAc
# How it was run: as §1
# [19] = target: Neu5Ac(a2-3)[GalNAc(b1-4)]Gal(b1-4)GlcNAc(b1-3)GalNAc
# How it was run: as §1
# [20] = target: Neu5Ac(a2-3)[Neu5Ac(a2-6)]GalNAc
# How it was run: as §1
# Neu5Ac(a2-6)Gal = target: Neu5Ac(a2-6)Gal
# How it was run: as §1
# [21] = target: Neu5Ac(a2-6)Gal(b1-3)GlcNAc(b1-3)[Gal(b1-4)GlcNAc(b1-6)]Gal(b1-4)Glc
# How it was run: as §1
# Neu5Ac(a2-6)Gal(b1-4)Glc = target: Neu5Ac(a2-6)Gal(b1-4)Glc
# How it was run: as §1
# [22] = target: Neu5Ac(a2-6)Gal(b1-4)GlcNAc
# How it was run: as §1
# [23] = target: Neu5Ac(a2-6)Gal(b1-4)GlcNAc(b1-2)Man
# How it was run: as §1
# [24] = target: Neu5Ac(a2-6)Gal(b1-4)GlcNAc(b1-2)Man(a1-3)Man(b1-4)GlcNAc(b1-4)GlcNAc
# How it was run: as §1
# [25] = target: Neu5Ac(a2-6)Gal(b1-4)GlcNAc(b1-2)Man(a1-3)[Gal(b1-4)GlcNAc(b1-2)Man(a1-6)]Man(b1-4)GlcNAc(b1-4)GlcNAc
# How it was run: as §1
# [26] = target: Neu5Ac(a2-6)Gal(b1-4)GlcNAc(b1-2)Man(a1-3)[GlcNAc(b1-4)][Neu5Ac(a2-6)Gal(b1-4)GlcNAc(b1-2)Man(a1-6)]Man(b1-4)GlcNAc(b1-4)GlcNAc
# How it was run: as §1
# [27] = target: Neu5Ac(a2-6)Gal(b1-4)GlcNAc(b1-2)Man(a1-3)[Man(a1-6)]Man(b1-4)GlcNAc(b1-4)GlcNAc
# How it was run: as §1
# [28] = target: Neu5Ac(a2-6)Gal(b1-4)GlcNAc(b1-2)Man(a1-3)[Neu5Ac(a2-3)Gal(b1-4)GlcNAc(b1-2)Man(a1-6)]Man(b1-4)GlcNAc(b1-4)GlcNAc
# How it was run: as §1
# [29] = target: Neu5Ac(a2-6)Gal(b1-4)GlcNAc(b1-2)Man(a1-3)[Neu5Ac(a2-6)Gal(b1-4)GlcNAc(b1-2)Man(a1-6)]Man(b1-4)GlcNAc(b1-4)GlcNAc
# How it was run: as §1
# [30] = target: Neu5Ac(a2-6)Gal(b1-4)GlcNAc(b1-2)Man(a1-3)[Neu5Ac(a2-6)Gal(b1-4)GlcNAc(b1-2)Man(a1-6)]Man(b1-4)GlcNAc(b1-4)[Fuc(a1-6)]GlcNAc
# How it was run: as §1
# [31] = target: Neu5Ac(a2-6)Gal(b1-4)GlcNAc(b1-2)Man(a1-6)Man(b1-4)GlcNAc(b1-4)GlcNAc
# How it was run: as §1
# [32] = target: Neu5Ac(a2-6)Gal(b1-4)GlcNAc(b1-2)Man(a1-6)[Gal(b1-4)GlcNAc(b1-2)Man(a1-3)]Man(b1-4)GlcNAc(b1-4)GlcNAc
# How it was run: as §1
# [33] = target: Neu5Ac(a2-6)Gal(b1-4)GlcNAc(b1-2)Man(a1-6)[GlcNAc(b1-2)Man(a1-3)]Man(b1-4)GlcNAc(b1-4)GlcNAc
# How it was run: as §1
# [34] = target: Neu5Ac(a2-6)Gal(b1-4)GlcNAc(b1-2)Man(a1-6)[Man(a1-3)]Man(b1-4)GlcNAc(b1-4)GlcNAc
# How it was run: as §1
# [35] = target: Neu5Ac(a2-6)Gal(b1-4)GlcNAc(b1-2)[Neu5Ac(a2-6)Gal(b1-4)GlcNAc(b1-4)]Man(a1-3)[GlcNAc(b1-4)][Neu5Ac(a2-6)Gal(b1-4)GlcNAc(b1-2)[Neu5Ac(a2-6)Gal(b1-4)GlcNAc(b1-6)]Man(a1-6)]Man(b1-4)GlcNAc(b1-4)GlcNAc
# How it was run: as §1
# [36] = target: Neu5Ac(a2-6)Gal(b1-4)GlcNAc(b1-2)[Neu5Ac(a2-6)Gal(b1-4)GlcNAc(b1-4)]Man(a1-3)[GlcNAc(b1-4)][Neu5Ac(a2-6)Gal(b1-4)GlcNAc(b1-4)Man(a1-6)]Man(b1-4)GlcNAc(b1-4)GlcNAc
# How it was run: as §1
# [37] = target: Neu5Ac(a2-6)Gal(b1-4)GlcNAc(b1-2)[Neu5Ac(a2-6)Gal(b1-4)GlcNAc(b1-6)]Man(a1-6)[Neu5Ac(a2-6)Gal(b1-4)GlcNAc(b1-2)Man(a1-3)][GlcNAc(b1-4)]Man(b1-4)GlcNAc(b1-4)GlcNAc
# How it was run: as §1
# [38] = target: Neu5Ac(a2-6)Gal(b1-4)GlcNAc(b1-3)Gal(b1-3)GlcNAc
# How it was run: as §1
# [39] = target: Neu5Ac(a2-6)Gal(b1-4)GlcNAc(b1-3)Gal(b1-4)GlcNAc
# How it was run: as §1
# [40] = target: Neu5Ac(a2-6)Gal(b1-4)GlcNAc(b1-3)Gal(b1-4)GlcNAc(b1-2)Man(a1-3)[Neu5Ac(a2-6)Gal(b1-4)GlcNAc(b1-3)Gal(b1-4)GlcNAc(b1-2)Man(a1-6)]GalNAc
# How it was run: as §1
# [41] = target: Neu5Ac(a2-6)Gal(b1-4)GlcNAc(b1-3)Gal(b1-4)GlcNAc(b1-3)Gal(b1-4)GlcNAc
# How it was run: as §1
# [42] = target: Neu5Ac(a2-6)Gal(b1-4)GlcNAc(b1-3)Gal(b1-4)GlcNAc(b1-3)Gal(b1-4)GlcNAc(b1-2)Man(a1-3)[Neu5Ac(a2-6)Gal(b1-4)GlcNAc(b1-3)Gal(b1-4)GlcNAc(b1-3)Gal(b1-4)GlcNAc(b1-2)Man(a1-6)]GalNAc
# How it was run: as §1
binder,measurement,setting,value
Lb MiSSP8 (Laccaria bicolor) (protein) MYFHTLFACATLMLITTAHASPTVINSLDSRKADLNGDVEARHAADWRRDSDWRRDSDWRRDSDWRRDSD,glycan array binding signal (z-score),[1],-0.751
same,glycan array binding signal (z-score),[2],3.01
same,glycan array binding signal (z-score),[3],-0.764
same,glycan array binding signal (z-score),[4],-0.702
same,glycan array binding signal (z-score),[5],-0.902
same,glycan array binding signal (z-score),[6],-0.827
same,glycan array binding signal (z-score),[7],-1.12
same,glycan array binding signal (z-score),[8],1.91
same,glycan array binding signal (z-score),[9],0.361
same,glycan array binding signal (z-score),[10],2.11
same,glycan array binding signal (z-score),[11],1.41
same,glycan array binding signal (z-score),[12],1.07
same,glycan array binding signal (z-score),[13],-0.84
same,glycan array binding signal (z-score),[14],-1.06
same,glycan array binding signal (z-score),[15],-0.682
same,glycan array binding signal (z-score),Neu5Ac(a2-3)GalNAc,1.65
same,glycan array binding signal (z-score),[16],-0.316
same,glycan array binding signal (z-score),[17],-0.827
same,glycan array binding signal (z-score),[18],-0.778
same,glycan array binding signal (z-score),[19],-0.557
same,glycan array binding signal (z-score),[20],1.96
same,glycan array binding signal (z-score),Neu5Ac(a2-6)Gal,-0.405
same,glycan array binding signal (z-score),[21],-0.399
same,glycan array binding signal (z-score),Neu5Ac(a2-6)Gal(b1-4)Glc,-0.664
same,glycan array binding signal (z-score),[22],-0.623
same,glycan array binding signal (z-score),[23],-0.578
same,glycan array binding signal (z-score),[24],-0.426
same,glycan array binding signal (z-score),[25],1.39
same,glycan array binding signal (z-score),[26],-0.647
same,glycan array binding signal (z-score),[27],-0.226
same,glycan array binding signal (z-score),[28],-0.606
same,glycan array binding signal (z-score),[29],0.529
same,glycan array binding signal (z-score),[30],-0.157
same,glycan array binding signal (z-score),[31],-0.399
same,glycan array binding signal (z-score),[32],-0.606
same,glycan array binding signal (z-score),[33],-0.668
same,glycan array binding signal (z-score),[34],-0.385
same,glycan array binding signal (z-score),[35],-0.744
same,glycan array binding signal (z-score),[36],-0.757
same,glycan array binding signal (z-score),[37],-0.675
same,glycan array binding signal (z-score),[38],-0.53
same,glycan array binding signal (z-score),[39],-0.971
same,glycan array binding signal (z-score),[40],-0.357
same,glycan array binding signal (z-score),[41],0.236
same,glycan array binding signal (z-score),[42],2.23
